Experimental data published in ChEMBL document CHEMBL5241054, “Effective anti-aromatase therapy to battle against estrogen-mediated breast cancer: Comparative SAR/QSAR assessment on steroidal aromatase inhibitors” (Eur J Med Chem, 2020).

Target: T1, Aromatase (Homo sapiens, UniProt P11511)
T1 sequence (P11511 whole entry): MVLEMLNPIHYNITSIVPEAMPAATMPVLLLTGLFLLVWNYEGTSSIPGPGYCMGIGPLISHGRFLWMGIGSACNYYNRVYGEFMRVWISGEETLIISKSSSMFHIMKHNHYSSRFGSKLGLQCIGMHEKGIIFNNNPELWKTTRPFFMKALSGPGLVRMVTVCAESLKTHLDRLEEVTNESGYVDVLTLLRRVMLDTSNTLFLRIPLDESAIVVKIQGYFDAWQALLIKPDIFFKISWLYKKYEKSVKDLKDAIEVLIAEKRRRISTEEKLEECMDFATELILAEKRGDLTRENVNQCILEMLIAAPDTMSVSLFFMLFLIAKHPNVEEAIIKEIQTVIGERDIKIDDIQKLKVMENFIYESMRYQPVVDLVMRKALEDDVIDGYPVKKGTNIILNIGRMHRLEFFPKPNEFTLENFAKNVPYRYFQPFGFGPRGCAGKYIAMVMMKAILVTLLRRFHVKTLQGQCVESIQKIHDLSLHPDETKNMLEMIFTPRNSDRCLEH

## C[C@]12C[C@@H](F)C(=O)C=C1CC[C@@H]1[C@@H]2CC[C@]2(C)C(=O)CC[C@@H]12
  IC50: 1 µM
